Results taken from publication PMC11714857, “PRDX5 and PRDX6 translocation and oligomerization in bull sperm: a response to cryopreservation-induced oxidative stress” (Cell Communication and Signaling : CCS, 2025).
Results are given in words; binding and its absence hold for the method and conditions named. Binding seen in cells or lysates may run through a third protein. Some entries that bind do so weakly or less than the wild type.

T1: Toll-like receptor 4 (bovine (endogenous in bull sperm)) (UniProt Q9GL65)
T1 sequence: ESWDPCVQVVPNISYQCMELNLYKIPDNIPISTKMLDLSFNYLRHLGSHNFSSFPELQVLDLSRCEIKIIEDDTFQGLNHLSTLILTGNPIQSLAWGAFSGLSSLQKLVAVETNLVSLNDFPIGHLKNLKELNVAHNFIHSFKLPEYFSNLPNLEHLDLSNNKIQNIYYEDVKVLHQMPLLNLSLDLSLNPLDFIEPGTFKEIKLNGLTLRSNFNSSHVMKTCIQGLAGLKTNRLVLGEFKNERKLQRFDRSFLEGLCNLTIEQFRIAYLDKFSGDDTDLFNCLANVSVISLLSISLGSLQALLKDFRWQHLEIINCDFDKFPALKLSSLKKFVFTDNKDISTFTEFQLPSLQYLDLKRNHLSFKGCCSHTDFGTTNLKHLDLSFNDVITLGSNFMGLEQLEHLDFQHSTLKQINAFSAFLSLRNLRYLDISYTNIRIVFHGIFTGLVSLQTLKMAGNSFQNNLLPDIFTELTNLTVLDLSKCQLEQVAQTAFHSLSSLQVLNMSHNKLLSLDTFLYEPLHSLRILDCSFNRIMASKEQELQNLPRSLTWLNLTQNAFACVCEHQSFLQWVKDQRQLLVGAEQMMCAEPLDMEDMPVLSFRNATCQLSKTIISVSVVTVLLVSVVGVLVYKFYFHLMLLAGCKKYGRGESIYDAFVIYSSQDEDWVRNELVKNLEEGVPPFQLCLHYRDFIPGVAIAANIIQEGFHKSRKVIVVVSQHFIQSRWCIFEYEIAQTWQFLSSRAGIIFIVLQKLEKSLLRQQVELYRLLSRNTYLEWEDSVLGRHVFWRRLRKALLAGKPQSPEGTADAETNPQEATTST


Target: T1, Toll-like receptor 4 (bovine (endogenous in bull sperm))
Assay: co-IP; anti-TLR4 monoclonal antibodies immobilised on a HiTrap Protein A HP column; bull sperm lysate in 20 mM sodium phosphate buffer pH 7.0 passed through; eluted with 0.1 M citric acid; eluate analysed by non-reducing SDS-PAGE and Western blot for PRDX5 and PRDX6

binding | Binder
binds | peroxiredoxin 6 (enzyme, bovine (endogenous in bull sperm), UniProt O77834 1-224, looked up, peroxiredoxin 6 (PRDX6), bovine, endogenous in bull sperm; runs as a single 25 kDa band in standard SDS-PAGE; The oligomers are disulfide-linked, as they appear only in non-reducing SDS-PAGE; also called PRDX6; source: endogenous, bull sperm lysate (native protein extraction; fresh or cryopreserved sperm)) MPGGLLLGDEAPNFEANTTIGRIRFHDYLGDSWGILFSHPRDFTPVCTTELGRAAKLAPEFAKRNVKMIALSIDSVEDHLAWSKDINAYNGEEPTEKLPFPIIDDKNRDLAIQLGMLDPAEKDEKGMPVTARVVFIFGPDKKLKLSILYPATTGRNFDEILRVIISLQLTAEKRVATPVDWKNGDSVMVLPTIPEEEAKKLFPKGVFTKELPSGKKYLRYTPQP
binds | peroxiredoxin 5 (enzyme, Bos taurus (endogenous in bull sperm), UniProt Q9BGI1 58-219, looked up, peroxiredoxin 5 (PRDX5) from Bos taurus, endogenous in bull sperm; runs as a single 17.5 kDa band in standard SDS-PAGE; The oligomers are disulfide-linked, as they appear only in non-reducing SDS-PAGE; also called PRDX5; source: endogenous, bull sperm lysate (native protein extraction; fresh or cryopreserved sperm)) MAPIKVGDAIPSVEVFEKEPGNKVNLAELFKGKKGVLFGLPGAFTPGCSKTHLPGFVEQADALKAKGIQVVACLTVNDVFVTEEWARAHKAEGKVRLLADPSGTFGKETDLLLDDSLLFLFGNHRLKRFSMVIEDGIVKSLNVEPDGTGLTCSLAPNILSQL
